Results from PubChem BioAssay AID328 (DTP/NCI, 2004).
The list is a part of this screen's results and no random one: it is rich in T/C values a quarter to a half above the control, in often repeated tests (any T/C) and in doses without a T/C. Other doses and runs of a compound stand elsewhere. T/C is the treated group as % of the vehicle group. Some entries give survivors of the animals treated and no T/C: the source holds a T/C of zero for them, seemingly a mark for toxic or unscored doses. Some doses without a T/C left all or most animals alive at the check, yet need not have been tolerated: survival well below the control is almost never listed, so the zero probably covers shortened survival too. Survivors were counted at the toxicity check, usually on the fifth day, unless a day is given; later deaths do not show. Schedule codes are those of the source, read here as Q, the interval in days (D) or hours (H), X, the number of doses. For survival time, this PubChem deposit counts one and a half times the control or more as active, and values a quarter to a half above the control carry no call in these data; other NCI protocols may use other cut-offs. Some T/C values are followed by the survivors on the day toxicity was checked, most often the fifth; without a count, all were alive then.

Test system: BDF1 mice, P388 leukemia ip, median survival T/C
Experiment: NCI In Vivo Anticancer Drug Screen. Data for tumor model P388 Leukemia (intraperitoneal) in B6D2F1 (BDF1) mice
Settings: T/C endpoint: median survival time, higher T/C = longer survival
How it was run: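 Compound-treated tumour-bearing mice were compared with vehicle-treated controls. Survival was recorded, and the value is the treated-group measurement divided by the control-group measurement (T/C).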

[1] = dose: 3.0 mg/kg/injection, schedule: Q01DX010 (ip), vehicle: saline
[2] = dose: 100.0 mg/kg/injection, schedule: Q01DX009 (ip), vehicle: saline with Tween-80
[3] = dose: 200.0 mg/kg/injection, schedule: Q01DX009 (ip), vehicle: water
[4] = dose: 400.0 mg/kg/injection, schedule: Q01DX009 (ip), vehicle: saline with Tween-80

In the case of `CC(=O)c1cccc(NC2C(N)C(NC(=O)N(C)C)(C(C)O)C(C)(O)C2(O)COC(=O)c2c(C)cccc2O)c1` (stereo not given), the T/C (dose: 0.38 mg/kg/injection, schedule: Q01DX010 (ip), vehicle: saline) is reported as 136 % of control, the T/C (dose: 0.75 mg/kg/injection, schedule: Q01DX010 (ip), vehicle: saline) is reported as 136 % of control and the T/C (dose: 1.5 mg/kg/injection, schedule: Q01DX010 (ip), vehicle: saline) is reported as 140 % of control. For the same molecule, the T/C [1] was 145 % of control, the survivor count [1] was 0 of 6 and the T/C (dose: 5.18 mg/kg/injection, schedule: Q04DX003 (ip), vehicle: alkali diluted with saline) was 146 % of control. For the same molecule, the survivor count (dose: 6.0 mg/kg/injection, schedule: Q01DX010 (ip), vehicle: saline) was 0 of 6, the survivor count (dose: 12.0 mg/kg/injection, schedule: Q01DX010 (ip), vehicle: saline) was 0 of 6 and the T/C (dose: 14.4 mg/kg/injection, schedule: Q04DX003 (ip), vehicle: alkali diluted with saline) was 149 % of control. The T/C (dose: 15.0 mg/kg/injection, schedule: Q04DX003 (ip), vehicle: alkali diluted with saline) was 130 % of control [7 of 8 alive], the survivor count (dose: 18.0 mg/kg/injection, schedule: Q04DX003 (ip), vehicle: alkali diluted with saline) was 5 of 8 and the survivor count (dose: 24.0 mg/kg/injection, schedule: Q04DX003 (ip), vehicle: alkali diluted with saline) was 4 of 8. For the same molecule, the survivor count (dose: 25.0 mg/kg/injection, schedule: Q04DX003 (ip), vehicle: alkali diluted with saline) was 1 of 8 and the survivor count (dose: 30.0 mg/kg/injection, schedule: Q04DX003 (ip), vehicle: alkali diluted with saline) was 1 of 8.

`Cc1cnc2ncn(Cc3c[nH]c(=O)[nH]c3=O)c(=O)c2c1` was tested, and the T/C (dose: 50.0 mg/kg/injection, schedule: Q01DX001 (ip), vehicle: saline with Tween-80) was 126 % of control and the survivor count (dose: 100.0 mg/kg/injection, schedule: Q01DX001 (ip), vehicle: saline with Tween-80) was 0 of 6.

`CCOC(=O)Nc1cc(NC(c2ccccc2)c2ccccc2)c2[nH]cnc2n1` was tested, and the T/C (dose: 30.0 mg/kg/injection, schedule: Q04DX003 (ip), vehicle: saline with Tween-80) was 133 % of control.

For `COc1ccc2c(c1)N(C(=O)N(CCOC(=O)Nc1ccccc1)CCOC(=O)Nc1ccccc1)c1ccccc1S2`, the survivor count [2] was 6 of 6.

`CC[N+](CC)(CC)CCCNC1=CC(=O)C(NCCC[N+](CC)(CC)CC)=CC1=O` was tested, and the survivor count (dose: 1.56 mg/kg/injection, schedule: Q04DX003 (ip), vehicle: saline) was 3 of 6, the survivor count (dose: 25.0 mg/kg/injection, schedule: Q04DX003 (ip), vehicle: saline) was 0 of 6 and the survivor count (dose: 50.0 mg/kg/injection, schedule: Q04DX003 (ip), vehicle: saline) was 0 of 6. For the same molecule, the survivor count (dose: 100.0 mg/kg/injection, schedule: Q04DX003 (ip), vehicle: saline) was 0 of 6.

In the case of `COc1ccc(C2=CC(c3ccc(OC)c(OC)c3)c3c(c4ccccc4oc3=O)O2)cc1OC` (stereo not given), the survivor count (dose: 100.0 mg/kg/injection, schedule: Q04DX003 (ip), vehicle: water) is reported as 4 of 6, the T/C [3] is reported as 126 % of control and the survivor count [3] is reported as 6 of 6. The survivor count (dose: 300.0 mg/kg/injection, schedule: Q01DX009 (ip), vehicle: water) was 6 of 6 and the survivor count (dose: 400.0 mg/kg/injection, schedule: Q01DX009 (ip), vehicle: water) was 4 of 6.

`CCCCCCCCCCCCCCCCOCCCCCCCCCCCCCCCC` was tested, and the survivor count (dose: 400.0 mg/kg/injection, schedule: Q01DX009 (ip), vehicle: other) was 6 of 6 and the survivor count (dose: 400.0 mg/kg/injection, schedule: Q04DX003 (ip), vehicle: other) was 6 of 6.

For `c1csc(CSc2ncnc3nc[nH]c23)c1`, the survivor count [4] was 4 of 6.

With `Cc1cc[n+](C)c2ccccc12` the survivor count (dose: 37.5 mg/kg/injection, schedule: Q04DX003 (ip), vehicle: saline) was 6 of 6.

`CCN(C(=S)Nc1cccc(OC)c1)c1ccccc1` was tested, and the survivor count [4] was 2 of 6.

For `CCCCOCN(COCCCC)C(C)Cc1ccccc1` (stereo not given), the T/C [2] was 144 % of control and the T/C (dose: 200.0 mg/kg/injection, schedule: Q01DX009 (ip), vehicle: saline with Tween-80) was 141 % of control.

With `O=C(O)CCC(=O)Nc1cccc(Oc2ccc([N+](=O)[O-])cc2[N+](=O)[O-])c1` the survivor count (dose: 100.0 mg/kg/injection, schedule: Q01DX009 (ip), vehicle: Klucel (hydroxypropylcellulose) (HPC)) was 6 of 6.
